Our source for the binding values is patent US20230250557A1 (published 2023).

Chains of the proteins cited; added tags and fusions are not shown.
UniProt Q9NZQ7: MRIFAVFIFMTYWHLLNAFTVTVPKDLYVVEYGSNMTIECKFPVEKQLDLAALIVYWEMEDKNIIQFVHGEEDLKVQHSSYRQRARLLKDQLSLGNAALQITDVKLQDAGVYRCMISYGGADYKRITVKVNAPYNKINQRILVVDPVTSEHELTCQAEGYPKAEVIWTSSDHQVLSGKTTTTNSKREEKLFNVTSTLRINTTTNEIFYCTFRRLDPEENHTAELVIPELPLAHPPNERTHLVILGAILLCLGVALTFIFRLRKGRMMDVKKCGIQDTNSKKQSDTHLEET

The labels stand for the following.
B1: 3-10H (designed binder)
chain: GSHMVSGKIVVIGSSTGGPRSLDMIIPNLPKNFPAPIVVVQHGNYATGWTTSGTKSLAQRLDSTSELTVKEAEDGEEVKPGFVYIAPGDFHLGLKAQNGKVFFFLDKSGLDWGWWAWGVRPAVDFTLDKAAEIYKEKTIAVILTGGWESGDYTGGDGTKGAFKVKFYGGTVIAEDKETSVVFGMPKSVIEEGYADYVLPAYKIPEKLIELV
B2: 3-8A (designed binder)
chain: GSHMVSGKIVVIGSSTGGPRSLDMIIPNLPKNFPAPIVVVQHGSWVDGSWTWGTKSLAQRLDSTSELTVKEAEDGEEVKPGFVYIAPGDFHLGLKAQNGKVFFFLDKSGWWNGGYWVTGVRPAVDFTLDKAAEIYKEKTIAVILTGGVNLGLYNGGDGTKGAFKVKFYGGTVIAEDKETSVVFGMPKSVIEEGYADYVLPAYKIPEKLIELV
notes: CheBc scaffold clone from modified pQE-80L in E. coli, purified on cobalt resin, detected with anti-FLAG
B3: 3-3A (designed binder)
chain: GSHMVSGKIVVIGSSTGGPRSLDMIIPNLPKNFPAPIVVVQHGYLRLGEWRGGTKSLAQRLDSTSELTVKEAEDGEEVKPGFVYIAPGDFHLGLKAQNGKVFFFLDKSGSALVGVSADGVRPAVDFTLDKAAEIYKEKTIAVILTGGRWYGNVEGGDGTKGAFKVKFYGGTVIAEDKETSVVFGMPKSVIEEGYADYVLPAYKIPEKLIELV
B4: 4-7D (designed binder)
chain: GSHMVSGKIVVIGSSTGGPRSLDMIIPNLPKNFPAPIVVVQHGHDWSGSSGWGTKSLAQRLDSTSELTVKEAEDGEEVKPGFVYIAPGDFHLGLKAQNGKVFFFLDKSGWVSWGWTNNGVRPAVDFTLDKAAEIYKEKTIAVILTGGRYEGVLLGGDGTKGAFKVKFYGGTVIAEDKETSVVFGMPKSVIEEGYADYVLPAYKIPEKLIELV
notes: as for B2
B5: 4-9B (designed binder)
chain: GSHMVSGKIVVIGSSTGGPRSLDMIIPNLPKNFPAPIVVVQHGWYWGGVRGEGTKSLAQRLDSTSELTVKEAEDGEEVKPGFVYIAPGDFHLGLKAQNGKVFFFLDKSGDWYWGWGDWGVRPAVDFTLDKAAEIYKEKTIAVILTGGEDYGAADGGDGTKGAFKVKFYGGTVIAEDKETSVVFGMPKSVIEEGYADYVLPAYKIPEKLIELV
B6: 3-1D (designed binder)
chain: GSHMVSGKIVVIGSSTGGPRSLDMIIPNLPKNFPAPIVVVQHGYYWGGAVYVGTKSLAQRLDSTSELTVKEAEDGEEVKPGFVYIAPGDFHLGLKAQNGKVFFFLDKSGRVVDGWDYDGVRPAVDFTLDKAAEIYKEKTIAVILTGGYASGYGDGGDGTKGAFKVKFYGGTVIAEDKETSVVFGMPKSVIEEGYADYVLPAYKIPEKLIELV
B7: 3-7E (designed binder)
chain: GSHMVSGKIVVIGSSTGGPRSLDMIIPNLPKNFPAPIVVVQHGYYWGSWGYEGTKSLAQRLDSTSELTVKEAEDGEEVKPGFVYIAPGDFHLGLKAQNGKVFFFLDKSGRVVDGWDYDGVRPAVDFTLDKAAEIYKEKTIAVILTGGWDTGSELGGDGTKGAFKVKFYGGTVIAEDKETSVVFGMPKSVIEEGYADYVLPAYKIPEKLIELV
notes: as for B2
B8: 3-5A (designed binder)
chain: GSHMVSGKIVVIGSSTGGPRSLDMIIPNLPKNFPAPIVVVQHGWSWWGDWTSGTKSLAQRLDSTSELTVKEAEDGEEVKPGFVYIAPGDFHLGLKAQNGKVFFFLDKSGSWGYGDYWAGVRPAVDFTLDKAAEIYKEKTIAVILTGGTWDGWVTGGDGTKGAFKVKFYGGTVIAEDKETSVVFGMPKSVIEEGYADYVLPAYKIPEKLIELV
B9: 4-3E (designed binder)
chain: GSHMVSGKIVVIGSSTGGPRSLDMIIPNLPKNFPAPIVVVQHGWWSWGWRGWGTKSLAQRLDSTSELTVKEAEDGEEVKPGFVYIAPGDFHLGLKAQNGKVFFFLDKSGRTDWGYEYWGVRPAVDFTLDKAAEIYKEKTIAVILTGGAWEGSAYGGDGTKGAFKVKFYGGTVIAEDKETSVVFGMPKSVIEEGYADYVLPAYKIPEKLIELV
B10: 4-12B (designed binder)
chain: GSHMVSGKIVVIGSSTGGPRSLDMIIPNLPKNFPAPIVVVQHGWERVGLRLSGTKSLAQRLDSTSELTVKEAEDGEEVKPGFVYIAPGDFHLGLKAQNGKVFFFLDKSGAWAWGNVWWGVRPAVDFTLDKAAEIYKEKTIAVILTGGAWLGETVGGDGTKGAFKVKFYGGTVIAEDKETSVVFGMPKSVIEEGYADYVLPAYKIPEKLIELV
B11: 2-8B (designed binder)
chain: GSHMVSGKIVVIGSSTGGPRSLDMIIPNLPKNFPAPIVVVQHGYDTLGWWGDGTKSLAQRLDSTSELTVKEAEDGEEVKPGFVYIAPGDFHLGLKAQNGKVFFFLDKSGDDYVGYGYLGVRPAVDFTLDKAAEIYKEKTIAVILTGGDWRGVWGGGDGTKGAFKVKFYGGTVIAEDKETSVVFGMPKSVIEEGYADYVLPAYKIPEKLIELV
B12: 1-12D (designed binder)
chain: GSHMVSGKIVVIGSSTGGPRSLDMIIPNLPKNFPAPIVVVQHGVSWWGGGSWGTKSLAQRLDSTSELTVKEAEDGEEVKPGFVYIAPGDFHLGLKAQNGKVFFFLDKSGRTYYGLAAWGVRPAVDFTLDKAAEIYKEKTIAVILTGGDAEGWYLGGDGTKGAFKVKFYGGTVIAEDKETSVVFGMPKSVIEEGYADYVLPAYKIPEKLIELV

No constants are given. Whether binding was seen depends on the method and setting. Some results given as binding are weak or reduced against the parent protein; the word gives no strength.

The target of the first assay is Biotinylated human HER2 antigen comprising a portion of the HER2 extracellular domain (Acro Biosystems) (human) (UniProt P04626). Briefly: ELISA screen of clone lysates on coated antigen, anti-FLAG-HRP.
Take B1: the binding entry is on record as “binds”.

In the case of B2, the binding entry is “binds”. On the same count and under the same terms, under B3 stands “binds”. Still for that read-out and setting: next, B4: “binds”. Same read-out and setting: next, B5: “binds”.

With B6, the binding result is recorded as “binds”. On the same count and under the same terms, under B7 stands “binds”; under B8, “binds”; under B9, “binds”. The same measure, in the same setting: next, B10: “binds”.

In the next assay the target is Biotinylated human PD-L1 antigen comprising a human IgG1 Fc domain (Acro Biosystems) (human) (UniProt Q9NZQ7). Described as above.
Regarding B11, the binding result is recorded as “binds”. Consider B12, for which the binding result is “binds”.
